This experiment concerns the target integrin αIIbβ3 on αIIbβ3-CHO cells (human) (UniProt P08514+P05106). The experiment can be described thus: flow cytometry on cells; CHO, β3-CHO, αIIbβ3-CHO or α4-CHO cells in HEPES-Tyrodes buffer/0.02% BSA, 1 mM Ca2+, incubated with or without the CD62P lectin domain (50 or 100 μg/ml) 30 min on ice, then with FITC-labeled ligand 30 min at room temperature; only the binder purified.

The chains behind the UniProt entries cited, without tags or fusion partners. Where a name states a change or a piece, a line headed by the entry shows the natural chain unless it says otherwise.
UniProt P08514: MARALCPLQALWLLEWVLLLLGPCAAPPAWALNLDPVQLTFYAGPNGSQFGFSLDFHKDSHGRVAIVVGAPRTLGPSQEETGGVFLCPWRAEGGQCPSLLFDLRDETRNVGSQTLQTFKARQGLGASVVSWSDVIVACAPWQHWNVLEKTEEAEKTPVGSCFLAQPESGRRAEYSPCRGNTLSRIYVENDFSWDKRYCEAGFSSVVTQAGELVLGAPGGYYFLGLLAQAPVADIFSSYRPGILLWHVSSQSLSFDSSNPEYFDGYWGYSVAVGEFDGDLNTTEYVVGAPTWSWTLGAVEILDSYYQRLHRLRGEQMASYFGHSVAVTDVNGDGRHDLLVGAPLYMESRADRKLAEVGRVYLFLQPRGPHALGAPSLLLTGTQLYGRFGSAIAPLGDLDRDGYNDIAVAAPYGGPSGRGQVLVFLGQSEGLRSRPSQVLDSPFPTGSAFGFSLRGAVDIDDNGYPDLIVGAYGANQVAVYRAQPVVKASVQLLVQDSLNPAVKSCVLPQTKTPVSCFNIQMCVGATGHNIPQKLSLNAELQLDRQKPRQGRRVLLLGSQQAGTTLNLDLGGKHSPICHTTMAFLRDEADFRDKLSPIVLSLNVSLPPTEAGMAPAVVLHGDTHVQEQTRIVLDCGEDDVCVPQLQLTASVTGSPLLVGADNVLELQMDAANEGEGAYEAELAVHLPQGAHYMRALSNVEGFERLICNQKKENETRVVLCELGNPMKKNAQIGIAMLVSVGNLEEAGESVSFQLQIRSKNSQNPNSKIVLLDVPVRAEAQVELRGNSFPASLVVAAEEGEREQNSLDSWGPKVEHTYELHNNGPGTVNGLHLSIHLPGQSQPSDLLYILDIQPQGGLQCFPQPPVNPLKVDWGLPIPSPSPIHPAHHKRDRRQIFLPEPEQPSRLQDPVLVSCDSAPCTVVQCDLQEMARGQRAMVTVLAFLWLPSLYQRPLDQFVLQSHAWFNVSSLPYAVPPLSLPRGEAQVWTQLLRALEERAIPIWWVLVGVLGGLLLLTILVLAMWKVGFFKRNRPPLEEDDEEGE
UniProt P05106: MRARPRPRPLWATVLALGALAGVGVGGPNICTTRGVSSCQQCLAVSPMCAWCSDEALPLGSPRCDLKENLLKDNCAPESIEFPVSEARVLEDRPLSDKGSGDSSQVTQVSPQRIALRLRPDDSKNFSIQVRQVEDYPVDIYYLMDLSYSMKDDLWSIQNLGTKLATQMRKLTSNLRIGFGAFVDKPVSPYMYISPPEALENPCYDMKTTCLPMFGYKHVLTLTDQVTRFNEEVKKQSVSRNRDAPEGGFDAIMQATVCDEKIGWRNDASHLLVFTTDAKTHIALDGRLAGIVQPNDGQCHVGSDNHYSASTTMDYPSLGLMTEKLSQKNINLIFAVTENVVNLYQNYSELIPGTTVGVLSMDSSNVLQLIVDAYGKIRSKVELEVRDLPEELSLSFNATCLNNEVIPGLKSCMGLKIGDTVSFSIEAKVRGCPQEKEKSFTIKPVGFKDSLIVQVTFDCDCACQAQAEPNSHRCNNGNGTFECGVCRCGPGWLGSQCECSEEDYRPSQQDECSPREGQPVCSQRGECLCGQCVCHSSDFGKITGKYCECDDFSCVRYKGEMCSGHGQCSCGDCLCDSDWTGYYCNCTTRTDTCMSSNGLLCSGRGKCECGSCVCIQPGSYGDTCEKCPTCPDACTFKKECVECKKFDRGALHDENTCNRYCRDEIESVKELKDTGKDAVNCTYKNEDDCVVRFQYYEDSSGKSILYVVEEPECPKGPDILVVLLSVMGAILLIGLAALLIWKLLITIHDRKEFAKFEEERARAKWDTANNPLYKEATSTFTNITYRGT

The record followed here is paper PMC10130748.

No constants are given. Whether binding was seen depends on the method and setting. Some binding calls cover weakened binding; strength is not graded here. Sequences can lack the tags named with a protein.

As to NRLTIGEGQQHHLGGAKQAGDV (FITC-labeled in the flow cytometry assay only) [fibrinogen γ-chain C-terminal residues 390–411 fused to GST (γC390-411)], the binding entry is “binds”.
